In the test the target is human Protein S (human) (UniProt P07225). The experiment in a line: Octet (BLI): human Protein S held by the control antibody on an anti-hIgG probe, then 10 ug/ml human TFPI, then buffer wash. Background: BLI is a label-free optical method that tracks binding on a fibre tip over time.

Amino acid sequences for entries named in this document (tags omitted). A change or cut given only in a name is not applied to a line headed by its entry. Residues count along the entry.
UniProt P07225: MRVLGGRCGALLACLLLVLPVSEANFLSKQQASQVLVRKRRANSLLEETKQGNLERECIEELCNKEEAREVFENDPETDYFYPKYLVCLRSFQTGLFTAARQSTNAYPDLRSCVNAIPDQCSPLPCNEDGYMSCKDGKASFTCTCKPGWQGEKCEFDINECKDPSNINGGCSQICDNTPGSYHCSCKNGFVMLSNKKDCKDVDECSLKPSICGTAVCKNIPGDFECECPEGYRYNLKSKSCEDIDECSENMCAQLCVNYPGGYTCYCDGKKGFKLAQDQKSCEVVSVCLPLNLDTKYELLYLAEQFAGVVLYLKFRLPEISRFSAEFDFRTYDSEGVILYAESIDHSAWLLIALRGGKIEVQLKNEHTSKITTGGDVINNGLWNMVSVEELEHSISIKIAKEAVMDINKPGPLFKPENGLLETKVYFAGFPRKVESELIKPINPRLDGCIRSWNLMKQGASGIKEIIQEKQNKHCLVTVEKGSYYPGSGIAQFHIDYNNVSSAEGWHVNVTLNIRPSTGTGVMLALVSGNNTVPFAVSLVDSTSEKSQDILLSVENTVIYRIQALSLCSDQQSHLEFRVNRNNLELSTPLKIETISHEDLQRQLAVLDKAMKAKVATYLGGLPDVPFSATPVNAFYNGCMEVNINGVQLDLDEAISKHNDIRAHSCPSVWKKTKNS
UniProt P10646, residues 29-282: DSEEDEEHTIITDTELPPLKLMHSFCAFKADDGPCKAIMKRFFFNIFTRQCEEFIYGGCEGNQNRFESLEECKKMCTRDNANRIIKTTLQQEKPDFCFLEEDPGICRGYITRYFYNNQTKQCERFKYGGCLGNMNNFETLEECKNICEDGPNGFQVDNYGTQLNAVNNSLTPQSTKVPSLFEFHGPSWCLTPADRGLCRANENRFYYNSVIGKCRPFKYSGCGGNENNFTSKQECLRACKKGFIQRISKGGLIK

Results on one substance are retold here after patent US20230174672A1.

Results are given in words; binding and its absence hold for the method and conditions named. Some entries that bind do so weakly or less than the wild type.

Consider human TFPI (from UniProt P10646 29-282), for which the binding entry was “binds”.
